In US11541051B2, “Compositions and methods for treating CDK4/6-mediated cancer” (Icahn School of Medicine at Mount Sinai, priority 2016, dated 2023):
For at least one compound, name, drawing or mass did not settle the structure.

What was measured:
Format in all cases: cell-based
[1] = test system: V5-tagged CDK4 or V5-tagged CDK6; assay: Western blot of V5-tagged CDK4 or CDK6 ectopically expressed in 293H cells (Example 8); details: 1, 3 or 10 μM, 24 h
CDK4 mRNA = assay: PCR analysis of CDK4 mRNA expression in breast cancer cells (Example 8); details: MCF7, T47D or ZR-75-1 cells; 1, 7.5, 15 or 30 μM; 24 h
[2] = test system: MCF7, T47D, ZR-75-1 breast cancer cells, SK-MEL-2, SK-MEL-30 melanoma cells; assay: BrdU incorporation assay, cell cycle progression through S phase (Example 7); details: 0.3-30 μM; 16 h
CDK4, CDK6 = assay: Western blot of CDK4 and CDK6 expression after CDK4/6 inhibitor treatment (Example 8); details: MCF7, T47D, ZR-75-1 or SK-MEL-2 cells; 0.1-30 μM; 24 h
MCF7-PBR cells = assay: Western blot in palbociclib-resistant MCF7-PBR cells (Example 10); details: 1, 3 or 10 μM, 24 h
CDK4/6 [3] = assay: Western blot of phospho-Rb in ER+ breast cancer versus melanoma cells (Example 11); details: MCF7, T47D versus SK-MEL-2, A375, WM1382 cells; 0.5 μM; 24 h
CDK4/6 [4] = assay: Western blot of phospho-Rb, PLK1 and cyclin A in breast cancer or melanoma cells treated with CDK4/6 inhibitors (Example 5); details: 24 h

CCN1CCN(Cc2ccc(Nc3ncc(F)c(-c4cc(F)c5nc(C)n(C(C)C)c5c4)n3)nc2)CC1 [abemaciclib]
expression of V5-tagged CDK4 and CDK6 [1]: upregulated the expression of V5-tagged CDK4 and CDK6
expression of CDK4 mRNA (CDK4 mRNA): did not upregulate the expression of CDK4 mRNA
suppression of cell cycle progression through S phase (BrdU incorporation) versus concentration [2]: inverse correlation between increased inhibitor concentration and suppression of cell cycle progression
expression of CDK4 and CDK6 protein (CDK4, CDK6): upregulate the expression of both CDK4 and CDK6

CC(=O)c1c(C)c2cnc(Nc3ccc(N4CCNCC4)cn3)nc2n(C2CCCC2)c1=O [palbociclib]
expression of V5-tagged CDK4 and CDK6 [1]: upregulated the expression of V5-tagged CDK4 and CDK6
expression of CDK4 mRNA (CDK4 mRNA): did not upregulate the expression of CDK4 mRNA
resistance of MCF7-PBR cells (pRB, PLK1, cyclin A, CDK6 immunoblot) (MCF7-PBR cells): resistance of the MCF7-PBR cells to palbociclib
suppression of Rb phosphorylation, ER+ breast cancer cells versus melanoma cells (CDK4/6 [3]): suppresses Rb phosphorylation more effectively in ER+ breast cancer cells than melanoma cells
window of activity in suppressing CDK4/6 activity (Rb phosphorylation, pRb level) (CDK4/6 [4]; 0.1-30 μM): narrow window of activity
suppression of CDK4/6 activity (Rb phosphorylation, pRb level) at high concentrations (CDK4/6 [4]; high concentrations (e.g., ≥about 10 μM)): failed to suppress CDK4/6 activity when administered at high concentrations
suppression of cell cycle progression through S phase (BrdU incorporation) versus concentration [2]: inverse correlation between increased inhibitor concentration and suppression of cell cycle progression
expression of CDK4 and CDK6 protein (CDK4, CDK6): upregulate the expression of both CDK4 and CDK6
